This passage reports binding results from article PMC3187750, “Functional Analysis of the Cytoskeleton Protein MreB from Chlamydophila pneumoniae” (PLoS ONE, 2011).

No constants are given. Whether binding was seen depends on the method and setting. A result given as binding can be weak or reduced; the word gives no strength. Tags and fused reporters may be left off the sequences shown.

In this assay the target is T1, MreB from Chlamydophila pneumoniae, wild type, C-terminal His6 tag (C. pneumoniae GiD).
T1 sequence: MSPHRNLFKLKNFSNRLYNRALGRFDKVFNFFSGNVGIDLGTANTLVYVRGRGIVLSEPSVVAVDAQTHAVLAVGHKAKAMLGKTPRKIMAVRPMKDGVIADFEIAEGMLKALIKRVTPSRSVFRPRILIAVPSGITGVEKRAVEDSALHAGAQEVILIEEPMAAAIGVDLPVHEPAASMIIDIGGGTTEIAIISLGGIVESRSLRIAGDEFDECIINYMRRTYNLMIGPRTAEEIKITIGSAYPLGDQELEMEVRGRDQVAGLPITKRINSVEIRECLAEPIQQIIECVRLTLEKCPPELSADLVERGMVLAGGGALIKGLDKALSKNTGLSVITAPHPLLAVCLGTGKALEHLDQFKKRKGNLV
The assay can be described thus: co-sedimentation; both purified.

Take MurF from C. pneumoniae (enzyme): the binding entry is reported as “binds”.
